According to patent publication US20230382924A1, “MODULATORS OF CYSTIC FIBROSIS TRANSMEMBRANE CONDUCTANCE REGULATOR” (VERTEX PHARMACEUTICALS INCORPORATED, priority 2020, published 2023):
Read-outs that look alike come from different tables or passages of the source. The match of structure and compound is tentative.

The chains behind the UniProt entries cited, without tags or fusion partners. A line that says so, or that is headed by a name, gives the form on record, which may keep a tag or linker.
UniProt P13569, with tags, fused parts or gaps DEL508-508: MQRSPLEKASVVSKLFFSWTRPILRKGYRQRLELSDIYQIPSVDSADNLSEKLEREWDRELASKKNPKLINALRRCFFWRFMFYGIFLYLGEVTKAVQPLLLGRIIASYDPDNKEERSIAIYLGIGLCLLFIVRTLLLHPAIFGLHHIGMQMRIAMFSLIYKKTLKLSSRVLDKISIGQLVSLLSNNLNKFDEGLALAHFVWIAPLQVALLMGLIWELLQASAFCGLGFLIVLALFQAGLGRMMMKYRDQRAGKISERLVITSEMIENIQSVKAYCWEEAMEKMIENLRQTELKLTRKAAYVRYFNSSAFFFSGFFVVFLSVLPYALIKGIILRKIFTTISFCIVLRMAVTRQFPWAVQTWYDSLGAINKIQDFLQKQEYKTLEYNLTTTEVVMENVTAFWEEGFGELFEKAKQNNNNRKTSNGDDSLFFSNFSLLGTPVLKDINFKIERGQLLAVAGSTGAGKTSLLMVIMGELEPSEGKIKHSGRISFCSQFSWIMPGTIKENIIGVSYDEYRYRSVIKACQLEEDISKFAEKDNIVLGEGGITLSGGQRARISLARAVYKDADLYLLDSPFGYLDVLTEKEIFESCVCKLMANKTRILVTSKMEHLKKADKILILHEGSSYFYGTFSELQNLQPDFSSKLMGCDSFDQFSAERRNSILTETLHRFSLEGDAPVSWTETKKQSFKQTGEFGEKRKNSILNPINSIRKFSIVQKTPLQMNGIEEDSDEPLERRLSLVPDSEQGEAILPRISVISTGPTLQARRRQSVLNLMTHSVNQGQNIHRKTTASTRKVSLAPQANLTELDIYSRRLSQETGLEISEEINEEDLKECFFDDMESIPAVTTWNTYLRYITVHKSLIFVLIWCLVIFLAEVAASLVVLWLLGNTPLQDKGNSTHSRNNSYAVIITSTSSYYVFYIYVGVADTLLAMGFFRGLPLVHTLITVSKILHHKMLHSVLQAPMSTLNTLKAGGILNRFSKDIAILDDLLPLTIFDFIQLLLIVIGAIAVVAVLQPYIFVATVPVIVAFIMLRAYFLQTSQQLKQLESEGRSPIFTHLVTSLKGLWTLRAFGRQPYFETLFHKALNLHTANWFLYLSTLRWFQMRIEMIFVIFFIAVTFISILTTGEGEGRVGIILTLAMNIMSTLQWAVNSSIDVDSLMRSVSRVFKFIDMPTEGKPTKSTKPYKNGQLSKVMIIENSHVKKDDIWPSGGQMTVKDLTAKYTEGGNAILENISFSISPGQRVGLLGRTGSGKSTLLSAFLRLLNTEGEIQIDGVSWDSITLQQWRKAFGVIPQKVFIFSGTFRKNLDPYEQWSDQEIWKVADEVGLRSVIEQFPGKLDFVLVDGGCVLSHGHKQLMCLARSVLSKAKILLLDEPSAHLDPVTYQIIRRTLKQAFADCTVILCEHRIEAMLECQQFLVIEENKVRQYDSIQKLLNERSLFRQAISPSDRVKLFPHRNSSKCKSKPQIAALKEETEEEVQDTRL

Target: CFTR (Homo sapiens, UniProt P13569)
Assay: Membrane Potential Dye, Enteroid Assay A
Format: cell-based
Conditions: for EC50: read-out: Ent. A EC50

| Compound | Ent. A Max Activity (Enteroid Assay A) | EC50 (Enteroid Assay A) [µM] | Ent. A Max Activity (Table 8) | EC50 (Table 8) [µM] |
| --- | --- | --- | --- | --- |
| Cc1cccc(C)c1-c1cc2nc(n1)NS(=O)(=O)c1cccc(c1)C(=O)NCC1(CCN(CC3CCN(C(=O)OC(C)(C)C)C3)CC1)CO2 (stereo not drawn) | ++ (++ is 30-60%) | 3 to 30 |  |  |
| CCC1CCC(c2cc3nc(n2)NS(=O)(=O)c2cccc(c2)C(=O)N[C@H](CC(C)C)CO3)CC1 (stereo partly drawn) [Compound 310] |  |  | ++ (++ is 306%) | < 1 |
| Cc1cccc(C)c1-c1cc2nc(n1)NS(=O)(=O)c1cccc(c1)C(=O)N[C@H](CCc1ccccc1)CO2 | +++ (+++ is >600%) | 1 to 3 |  |  |
